Data taken from the supplement of paper PMC10849652.
This is one part of the list.

Chains of the proteins cited; added tags and fusions are not shown. Lines headed by an entry give the natural chain unless they say otherwise; changes in a name come on top.
UniProt Q9UKN8: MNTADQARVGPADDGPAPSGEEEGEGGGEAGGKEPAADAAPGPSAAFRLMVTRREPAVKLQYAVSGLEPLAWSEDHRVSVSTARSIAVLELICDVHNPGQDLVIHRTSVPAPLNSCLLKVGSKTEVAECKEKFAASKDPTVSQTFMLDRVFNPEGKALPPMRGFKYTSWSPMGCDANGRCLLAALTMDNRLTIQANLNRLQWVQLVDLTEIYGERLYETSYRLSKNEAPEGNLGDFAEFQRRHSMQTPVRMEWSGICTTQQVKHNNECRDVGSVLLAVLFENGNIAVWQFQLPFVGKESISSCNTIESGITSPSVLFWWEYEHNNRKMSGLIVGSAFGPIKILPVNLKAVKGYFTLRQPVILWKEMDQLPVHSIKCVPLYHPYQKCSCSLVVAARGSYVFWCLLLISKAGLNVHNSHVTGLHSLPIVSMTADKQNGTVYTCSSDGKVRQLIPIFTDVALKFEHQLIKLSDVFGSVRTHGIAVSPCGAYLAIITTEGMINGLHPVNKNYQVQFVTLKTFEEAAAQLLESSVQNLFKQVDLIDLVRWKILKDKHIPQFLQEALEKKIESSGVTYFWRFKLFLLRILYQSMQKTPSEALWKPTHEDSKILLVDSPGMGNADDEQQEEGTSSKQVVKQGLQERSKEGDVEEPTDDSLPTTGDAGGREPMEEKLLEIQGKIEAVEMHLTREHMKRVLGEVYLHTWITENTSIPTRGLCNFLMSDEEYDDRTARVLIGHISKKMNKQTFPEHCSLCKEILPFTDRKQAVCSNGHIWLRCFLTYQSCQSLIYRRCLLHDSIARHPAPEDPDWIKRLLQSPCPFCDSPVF
UniProt Q969S8: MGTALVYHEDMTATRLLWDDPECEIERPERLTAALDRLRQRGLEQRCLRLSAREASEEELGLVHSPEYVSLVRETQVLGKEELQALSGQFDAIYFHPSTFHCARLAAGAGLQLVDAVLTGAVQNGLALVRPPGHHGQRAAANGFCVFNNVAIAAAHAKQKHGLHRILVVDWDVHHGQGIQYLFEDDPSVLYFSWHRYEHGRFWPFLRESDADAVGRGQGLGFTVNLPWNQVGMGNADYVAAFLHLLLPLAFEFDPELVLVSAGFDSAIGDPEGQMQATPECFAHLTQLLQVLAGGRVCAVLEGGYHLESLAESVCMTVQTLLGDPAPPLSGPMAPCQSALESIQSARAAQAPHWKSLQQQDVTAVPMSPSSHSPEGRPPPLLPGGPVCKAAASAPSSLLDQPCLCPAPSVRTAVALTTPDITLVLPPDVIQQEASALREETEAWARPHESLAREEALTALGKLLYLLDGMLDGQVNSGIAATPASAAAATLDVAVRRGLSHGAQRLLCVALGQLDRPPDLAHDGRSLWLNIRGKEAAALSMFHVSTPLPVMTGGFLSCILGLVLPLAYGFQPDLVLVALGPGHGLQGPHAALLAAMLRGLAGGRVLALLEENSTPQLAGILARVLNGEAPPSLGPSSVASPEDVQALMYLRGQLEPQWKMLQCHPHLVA
UniProt P53701: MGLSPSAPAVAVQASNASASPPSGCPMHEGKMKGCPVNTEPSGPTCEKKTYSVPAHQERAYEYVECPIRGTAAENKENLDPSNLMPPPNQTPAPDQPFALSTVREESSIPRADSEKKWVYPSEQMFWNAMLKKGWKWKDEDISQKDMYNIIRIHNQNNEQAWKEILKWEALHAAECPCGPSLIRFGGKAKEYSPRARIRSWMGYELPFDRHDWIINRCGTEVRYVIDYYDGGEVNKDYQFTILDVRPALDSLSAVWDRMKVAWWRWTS
UniProt Q9HAV7: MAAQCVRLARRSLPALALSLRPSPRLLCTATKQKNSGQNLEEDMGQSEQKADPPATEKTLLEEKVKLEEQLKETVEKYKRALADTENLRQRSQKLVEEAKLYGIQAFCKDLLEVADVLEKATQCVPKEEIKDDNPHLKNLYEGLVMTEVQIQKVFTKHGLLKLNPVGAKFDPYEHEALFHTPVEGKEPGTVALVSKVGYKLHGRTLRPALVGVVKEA
UniProt Q9UJ83: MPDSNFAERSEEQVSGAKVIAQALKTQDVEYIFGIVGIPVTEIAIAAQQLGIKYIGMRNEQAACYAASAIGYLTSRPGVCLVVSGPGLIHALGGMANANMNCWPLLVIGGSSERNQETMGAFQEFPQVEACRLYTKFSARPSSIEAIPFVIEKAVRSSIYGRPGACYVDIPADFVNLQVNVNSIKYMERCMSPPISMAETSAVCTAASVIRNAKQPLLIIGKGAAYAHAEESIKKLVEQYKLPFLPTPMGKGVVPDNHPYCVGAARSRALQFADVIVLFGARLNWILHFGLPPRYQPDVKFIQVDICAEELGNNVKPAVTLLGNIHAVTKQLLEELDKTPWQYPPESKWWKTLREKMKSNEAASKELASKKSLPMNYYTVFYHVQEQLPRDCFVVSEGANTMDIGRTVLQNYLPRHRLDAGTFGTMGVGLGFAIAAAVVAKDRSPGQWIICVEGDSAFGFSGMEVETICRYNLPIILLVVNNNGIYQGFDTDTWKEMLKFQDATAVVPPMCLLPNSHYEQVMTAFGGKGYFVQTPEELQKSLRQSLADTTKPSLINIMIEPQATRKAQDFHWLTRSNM
UniProt Q8N4P3, whole entry, looked up: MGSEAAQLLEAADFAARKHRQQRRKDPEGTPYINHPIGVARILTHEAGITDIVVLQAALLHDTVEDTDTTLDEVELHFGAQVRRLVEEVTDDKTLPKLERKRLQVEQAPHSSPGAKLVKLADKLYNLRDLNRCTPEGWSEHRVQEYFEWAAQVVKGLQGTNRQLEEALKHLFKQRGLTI
UniProt Q969Y2: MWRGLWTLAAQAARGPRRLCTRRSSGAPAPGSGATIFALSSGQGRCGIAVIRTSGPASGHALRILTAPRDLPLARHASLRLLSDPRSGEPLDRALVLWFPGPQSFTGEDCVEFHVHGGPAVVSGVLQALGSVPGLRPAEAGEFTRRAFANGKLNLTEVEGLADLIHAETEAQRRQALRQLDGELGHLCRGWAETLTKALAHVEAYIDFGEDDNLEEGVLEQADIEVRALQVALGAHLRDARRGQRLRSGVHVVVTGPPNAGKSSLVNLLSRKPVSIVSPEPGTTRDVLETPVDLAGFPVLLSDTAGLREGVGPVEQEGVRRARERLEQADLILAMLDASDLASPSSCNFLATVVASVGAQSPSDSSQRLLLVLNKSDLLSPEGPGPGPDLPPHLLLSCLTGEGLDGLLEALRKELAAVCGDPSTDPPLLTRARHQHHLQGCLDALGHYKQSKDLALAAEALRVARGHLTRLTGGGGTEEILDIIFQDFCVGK
UniProt Q9P035: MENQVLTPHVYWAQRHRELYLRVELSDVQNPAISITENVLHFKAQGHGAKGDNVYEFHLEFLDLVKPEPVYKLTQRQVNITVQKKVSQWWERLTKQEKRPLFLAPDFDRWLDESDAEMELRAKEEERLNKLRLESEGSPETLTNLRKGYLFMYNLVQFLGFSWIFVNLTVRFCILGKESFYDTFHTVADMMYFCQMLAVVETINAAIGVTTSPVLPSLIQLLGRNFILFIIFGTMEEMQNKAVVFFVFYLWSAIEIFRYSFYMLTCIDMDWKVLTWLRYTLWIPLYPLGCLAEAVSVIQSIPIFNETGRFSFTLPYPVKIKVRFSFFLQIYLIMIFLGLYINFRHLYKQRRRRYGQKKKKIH
UniProt Q9P2D3: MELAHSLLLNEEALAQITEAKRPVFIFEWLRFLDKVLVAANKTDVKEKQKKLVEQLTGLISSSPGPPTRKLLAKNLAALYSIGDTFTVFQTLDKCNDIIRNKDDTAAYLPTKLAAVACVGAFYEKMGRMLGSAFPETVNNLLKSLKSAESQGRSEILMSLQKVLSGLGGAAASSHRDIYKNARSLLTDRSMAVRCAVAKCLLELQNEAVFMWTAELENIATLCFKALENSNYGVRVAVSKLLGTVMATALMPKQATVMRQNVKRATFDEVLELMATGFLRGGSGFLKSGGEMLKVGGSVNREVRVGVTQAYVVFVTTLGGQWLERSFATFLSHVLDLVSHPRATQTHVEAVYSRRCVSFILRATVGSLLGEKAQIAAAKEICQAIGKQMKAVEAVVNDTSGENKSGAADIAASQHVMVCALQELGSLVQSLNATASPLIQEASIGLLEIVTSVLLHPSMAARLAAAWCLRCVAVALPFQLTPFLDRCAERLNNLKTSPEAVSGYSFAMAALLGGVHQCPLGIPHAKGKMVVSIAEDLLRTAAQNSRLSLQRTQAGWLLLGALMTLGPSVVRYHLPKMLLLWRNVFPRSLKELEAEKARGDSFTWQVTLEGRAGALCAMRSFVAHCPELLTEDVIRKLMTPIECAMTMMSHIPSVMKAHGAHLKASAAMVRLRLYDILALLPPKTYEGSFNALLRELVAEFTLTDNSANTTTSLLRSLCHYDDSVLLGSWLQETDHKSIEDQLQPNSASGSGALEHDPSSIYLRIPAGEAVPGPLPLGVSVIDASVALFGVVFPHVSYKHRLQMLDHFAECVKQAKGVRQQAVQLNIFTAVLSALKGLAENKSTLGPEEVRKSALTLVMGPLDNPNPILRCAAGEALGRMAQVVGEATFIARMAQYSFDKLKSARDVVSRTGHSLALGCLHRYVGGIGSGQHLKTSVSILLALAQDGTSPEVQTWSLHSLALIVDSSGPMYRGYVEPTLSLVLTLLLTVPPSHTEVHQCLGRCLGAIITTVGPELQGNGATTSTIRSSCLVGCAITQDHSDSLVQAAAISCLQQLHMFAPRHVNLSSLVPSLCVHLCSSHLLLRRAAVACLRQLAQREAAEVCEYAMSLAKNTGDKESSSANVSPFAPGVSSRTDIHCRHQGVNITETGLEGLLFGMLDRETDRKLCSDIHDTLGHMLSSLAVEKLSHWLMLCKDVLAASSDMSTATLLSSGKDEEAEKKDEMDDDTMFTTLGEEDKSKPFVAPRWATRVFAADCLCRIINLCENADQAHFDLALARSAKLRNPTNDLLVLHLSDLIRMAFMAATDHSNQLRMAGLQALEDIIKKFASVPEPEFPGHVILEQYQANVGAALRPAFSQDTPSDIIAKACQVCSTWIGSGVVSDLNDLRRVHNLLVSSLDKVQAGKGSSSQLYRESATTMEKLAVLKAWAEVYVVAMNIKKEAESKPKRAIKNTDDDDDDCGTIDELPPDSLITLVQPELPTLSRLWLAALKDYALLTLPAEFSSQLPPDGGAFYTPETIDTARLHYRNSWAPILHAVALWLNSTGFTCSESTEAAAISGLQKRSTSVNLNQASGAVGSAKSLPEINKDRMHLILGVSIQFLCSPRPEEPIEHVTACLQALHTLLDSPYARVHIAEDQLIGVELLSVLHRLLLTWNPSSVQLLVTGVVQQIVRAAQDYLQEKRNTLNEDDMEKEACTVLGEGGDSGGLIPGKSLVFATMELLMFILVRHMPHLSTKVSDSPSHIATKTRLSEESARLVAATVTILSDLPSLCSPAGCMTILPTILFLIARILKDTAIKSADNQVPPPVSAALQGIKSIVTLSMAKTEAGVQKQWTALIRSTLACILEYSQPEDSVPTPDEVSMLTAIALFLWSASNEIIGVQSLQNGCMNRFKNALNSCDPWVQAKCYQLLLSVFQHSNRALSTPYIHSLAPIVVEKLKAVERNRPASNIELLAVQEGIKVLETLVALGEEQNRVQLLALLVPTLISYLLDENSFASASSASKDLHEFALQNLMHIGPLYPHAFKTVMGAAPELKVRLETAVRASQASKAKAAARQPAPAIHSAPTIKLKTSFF
UniProt P21266: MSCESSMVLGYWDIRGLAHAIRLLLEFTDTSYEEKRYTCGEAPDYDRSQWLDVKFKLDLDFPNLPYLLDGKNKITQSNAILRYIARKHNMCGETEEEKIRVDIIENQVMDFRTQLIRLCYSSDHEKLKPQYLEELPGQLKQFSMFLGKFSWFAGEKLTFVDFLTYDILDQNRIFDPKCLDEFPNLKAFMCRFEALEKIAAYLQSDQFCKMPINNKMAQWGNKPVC
UniProt O94927: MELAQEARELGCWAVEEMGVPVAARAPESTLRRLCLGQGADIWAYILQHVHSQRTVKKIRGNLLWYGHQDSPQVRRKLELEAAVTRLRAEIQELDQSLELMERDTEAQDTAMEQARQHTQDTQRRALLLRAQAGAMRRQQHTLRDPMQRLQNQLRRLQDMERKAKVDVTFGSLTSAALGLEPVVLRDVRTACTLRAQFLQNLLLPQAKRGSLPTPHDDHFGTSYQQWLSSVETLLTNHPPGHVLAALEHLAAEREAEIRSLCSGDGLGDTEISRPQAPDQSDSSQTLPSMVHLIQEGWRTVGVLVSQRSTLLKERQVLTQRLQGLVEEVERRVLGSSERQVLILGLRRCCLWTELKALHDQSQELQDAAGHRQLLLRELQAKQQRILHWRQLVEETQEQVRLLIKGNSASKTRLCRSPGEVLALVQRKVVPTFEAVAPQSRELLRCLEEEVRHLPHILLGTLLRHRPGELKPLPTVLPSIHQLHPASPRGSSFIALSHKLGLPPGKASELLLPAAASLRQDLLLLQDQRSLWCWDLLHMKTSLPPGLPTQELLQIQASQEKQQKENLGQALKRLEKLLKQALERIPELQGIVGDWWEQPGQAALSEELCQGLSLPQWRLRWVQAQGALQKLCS

Tests used:
Experiment in all cases: log2 fold change, soluble protein after heating vs DMSO (PISA); higher = thermal stabilisation; K562 lysate, 10 uM; active = over 0.2 and 3.5 SD of the protein, either way, in both replicates (recomputed)
[1] = compound: NCC(=O)Nc1ccc(-n2nc(C(F)(F)F)cc2-c2ccc3c(ccc4ccccc43)c2)cc1
Method in brief: (§1)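 To prepare the extract, K562 pellets were dounce-homogenised in PBS pH 7.4 with 1 mM MgCl2, giving crude material at 1 mg/mL protein. This was treated with 10 μM compound for 30 min, then heated in aliquots for 3 min over 48°C-58°C before pooling and addition of NP-40 to 0.5% at 4°C. Centrifugation at 21,000xg for 90 min left soluble protein in the supernatant, which TMTpro 16plex LC-MS/MS quantified with equalised channel sums. Results are log-two fold changes in thermal stability compared with solvent controls, from duplicates.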

vorinostat = compound: O=C(CCCCCCC(=O)Nc1ccccc1)NO [vorinostat]
Method in brief: as §1

silmitasertib = compound: O=C(O)c1ccc2c(c1)nc(Nc1cccc(Cl)c1)c1ccncc12 [silmitasertib]
Method in brief: as §1

[2] = compound: O=C1NC(=O)C(c2cnc3ccccn23)=C1c1cn2c3c(cc(F)cc13)CN(C(=O)N1CCCCC1)CC2
Method in brief: as §1

entospletinib = compound: c1cn2cc(-c3ccc4cn[nH]c4c3)nc(Nc3ccc(N4CCOCC4)cc3)c2n1 [entospletinib]
Method in brief: as §1

Measured: log2 fold change

GTF2B (UniProt Q00403)
inactive: [1] 0.011 | vorinostat -0.071 | silmitasertib 0.044 | [2] -0.007 | entospletinib -0.005

GTF3C4 (UniProt Q9UKN8)
inactive: [1] -0.011 | vorinostat -0.043 | silmitasertib 0.016 | [2] -0.023 | entospletinib 0

HAUS7 isoform 2 (UniProt Q99871)
active: vorinostat -0.416
inactive: [1] -0.091 | silmitasertib -0.029 | [2] -0.026 | entospletinib -0.124

HDAC5 isoform 3 (UniProt Q9UQL6)
inactive: [1] -0.017 | vorinostat -0.079 | silmitasertib -0.023 | [2] -0.001 | entospletinib -0.02

HDAC10 (UniProt Q969S8)
inactive: [1] 0.147 | vorinostat 0.211 | silmitasertib 0.156 | [2] -0.032 | entospletinib 0.053

GYPC (UniProt P04921)
inactive: [1] 0.002 | vorinostat 0.047 | silmitasertib 0 | [2] 0.013 | entospletinib -0.025

HCFC1 isoform 4 (UniProt P51610)
inactive: [1] -0.005 | vorinostat -0.068 | silmitasertib -0.039 | [2] -0.001 | entospletinib 0.005

GYPA (UniProt P02724)
inactive: [1] -0.028 | vorinostat 0.152 | silmitasertib -0.097 | [2] -0.04 | entospletinib 0.019

HBS1L isoform 2 (UniProt Q9Y450)
inactive: [1] 0.028 | vorinostat -0.083 | silmitasertib 0.056 | [2] -0.019 | entospletinib -0.012

GSK3A (UniProt P49840)
inactive: [1] -0.019 | vorinostat 0.265 | silmitasertib 0.382 | [2] 0.456 | entospletinib 0.014

GRB10 (UniProt Q13322)
inactive: [1] -0.001 | silmitasertib 0.065 | [2] 0.008 | entospletinib 0.007
active: vorinostat -0.402

GTPBP2 (UniProt Q9BX10)
inactive: [1] 0.029 | silmitasertib 0 | [2] -0.003 | entospletinib 0.056
active: vorinostat -0.289

HCCS (UniProt P53701)
inactive: [1] -0.009 | vorinostat 0.073 | silmitasertib 0.003 | [2] 0.001 | entospletinib -0.016

HDDC2 (UniProt Q7Z4H3)
inactive: [1] -0.076 | vorinostat 0.148 | silmitasertib 0 | [2] -0.01 | entospletinib 0.024

HDGFL3 (UniProt Q9Y3E1)
inactive: [1] -0.015 | vorinostat 0.106 | silmitasertib 0.004 | [2] -0.006 | entospletinib -0.002

GTF3C1 (UniProt Q12789)
inactive: [1] 0.029 | vorinostat -0.191 | silmitasertib 0.035 | [2] -0.004 | entospletinib -0.005

GSK3B isoform 2 (UniProt P49841)
inactive: [1] 0.02 | vorinostat 0.253 | silmitasertib 0.421 | [2] 0.657 | entospletinib 0.05

GRPEL1 (UniProt Q9HAV7)
inactive: [1] 0.01 | vorinostat 0.061 | silmitasertib -0.02 | [2] 0.035 | entospletinib 0.007

HAT1 (UniProt O14929)
inactive: [1] 0.022 | vorinostat -0.222 | silmitasertib -0.039 | [2] -0.008 | entospletinib -0.012

HBQ1 (UniProt P09105)
inactive: [1] -0.084 | vorinostat 0.067 | silmitasertib -0.041 | [2] 0.094 | entospletinib -0.128

GRAP2 (UniProt O75791)
inactive: [1] -0.016 | vorinostat -0.073 | silmitasertib 0.025 | [2] -0.007 | entospletinib -0.088

GTSF1 (UniProt Q8WW33)
inactive: [1] -0.017 | vorinostat -0.003 | silmitasertib -0.008 | [2] -0.014 | entospletinib 0.009

GSPT1 isoform 3 (UniProt P15170)
inactive: [1] -0.013 | vorinostat 0.023 | silmitasertib -0.014 | [2] 0.005 | entospletinib 0.013

HACL1 (UniProt Q9UJ83)
inactive: [1] 0.017 | vorinostat 0.084 | silmitasertib -0.014 | [2] -0.014 | entospletinib -0.017

GRK6 isoform 2 (UniProt P43250)
active: silmitasertib 0.48
inactive: [1] 0.001 | vorinostat -0.227 | [2] -0.012 | entospletinib -0.123

HDDC3 (UniProt Q8N4P3)
inactive: [1] 0.057 | vorinostat 0.086 | silmitasertib 0.026 | [2] -0.085 | entospletinib -0.03

GTSE1 (UniProt Q9NYZ3)
inactive: [1] 0.068 | vorinostat -0.18 | silmitasertib -0.074 | [2] 0.096 | entospletinib -0.012

GSPT2 (UniProt Q8IYD1)
inactive: [1] -0.026 | vorinostat -0.006 | silmitasertib -0.018 | [2] 0.054 | entospletinib -0.031

GSR (UniProt P00390)
inactive: [1] -0.008 | vorinostat 0.1 | silmitasertib 0.005 | [2] -0.005 | entospletinib 0

HAGH (UniProt Q16775)
inactive: [1] 0.019 | vorinostat 0.151 | silmitasertib 0.01 | [2] 0.003 | entospletinib 0.018

GTPBP3 isoform 2 (UniProt Q969Y2)
inactive: [1] -0.105 | vorinostat -0.042 | silmitasertib -0.029 | [2] 0.048 | entospletinib -0.074

HACD3 (UniProt Q9P035)
inactive: [1] -0.006 | vorinostat 0.109 | silmitasertib 0.003 | [2] -0.003 | entospletinib 0.01

Pulled one by one from above, 3 records:
GSR (UniProt P00390)
inactive: [1] -0.008 | vorinostat 0.1 | silmitasertib 0.005 | [2] -0.005 | entospletinib 0

HACD3 (UniProt Q9P035)
inactive: [1] -0.006 | vorinostat 0.109 | silmitasertib 0.003 | [2] -0.003 | entospletinib 0.01

GTPBP3 isoform 2 (UniProt Q969Y2)
inactive: [1] -0.105 | vorinostat -0.042 | silmitasertib -0.029 | [2] 0.048 | entospletinib -0.074

Following part

HEATR5B (UniProt Q9P2D3)
inactive: [1] 0 | vorinostat -0.128 | silmitasertib 0.014 | [2] 0.011 | entospletinib -0.021

GSKIP (UniProt Q9P0R6)
inactive: [1] -0.17 | vorinostat 0.194 | silmitasertib 0.023 | [2] 0.044 | entospletinib -0.134

HBE1 (UniProt P02100)
inactive: [1] -0.057 | vorinostat 0.085 | silmitasertib -0.044 | [2] 0.015 | entospletinib -0.078

GTPBP4 (UniProt Q9BZE4)
inactive: [1] -0.008 | vorinostat -0.004 | silmitasertib 0.018 | [2] -0.003 | entospletinib 0.016

GRWD1 (UniProt Q9BQ67)
inactive: [1] -0.016 | vorinostat -0.002 | silmitasertib -0.002 | [2] 0.02 | entospletinib -0.007

GSE1 (UniProt Q14687)
active: vorinostat -0.286
inactive: [1] 0.029 | silmitasertib -0.006 | [2] -0.006 | entospletinib -0.017

GSTZ1 (UniProt G3V4T6)
inactive: [1] 0.088 | vorinostat 0.167 | silmitasertib -0.002 | [2] -0.015 | entospletinib -0.031

GRAMD4 (UniProt Q6IC98)
inactive: [1] 0.229 | vorinostat -0.186 | silmitasertib -0.129 | [2] 0.149 | entospletinib 0.008

HACE1 (UniProt Q8IYU2)
inactive: [1] 0.183 | vorinostat -0.126 | silmitasertib -0.002 | [2] 0.084 | entospletinib 0.012

HDAC7 isoform 5 (UniProt Q8WUI4)
inactive: [1] -0.007 | vorinostat -0.016 | silmitasertib -0.059 | [2] 0 | entospletinib 0.022

GTF2I (UniProt P78347)
active: vorinostat -0.287
inactive: [1] -0.001 | silmitasertib 0.091 | [2] -0.005 | entospletinib -0.017

GSTM3 (UniProt P21266)
inactive: [1] -0.011 | vorinostat -0.194 | silmitasertib 0.068 | [2] -0.092 | entospletinib 0.02

GREB1 (UniProt Q4ZG55)
inactive: [1] 0.238 | vorinostat 0.137 | silmitasertib -0.069 | [2] 0.454 | entospletinib 0.001

HBA1 (UniProt P69905)
inactive: [1] -0.084 | vorinostat 0.141 | silmitasertib -0.061 | [2] 0.036 | entospletinib -0.048

HAUS5 (UniProt O94927)
active: vorinostat -0.416
inactive: [1] 0.031 | silmitasertib 0.045 | [2] -0.015 | entospletinib 0.013

GTF3A (UniProt Q92664)
inactive: [1] 0.029 | vorinostat -0.001 | silmitasertib 0.036 | [2] -0.018 | entospletinib -0.105
